Experimental data: paper PMC11425283
These are yes or no findings as the source states them, for the method shown. Binding seen in cells or lysates may run through a third protein. For part of these data: A result given as binding can be weak or reduced; the word gives no strength. For part of these data: Where a sequence is shown, tags or fusion partners need not be part of it.

Amino acid sequences for entries named in this document (tags omitted). A change or cut given only in a name is not applied to a line headed by its entry.
UniProt P09958: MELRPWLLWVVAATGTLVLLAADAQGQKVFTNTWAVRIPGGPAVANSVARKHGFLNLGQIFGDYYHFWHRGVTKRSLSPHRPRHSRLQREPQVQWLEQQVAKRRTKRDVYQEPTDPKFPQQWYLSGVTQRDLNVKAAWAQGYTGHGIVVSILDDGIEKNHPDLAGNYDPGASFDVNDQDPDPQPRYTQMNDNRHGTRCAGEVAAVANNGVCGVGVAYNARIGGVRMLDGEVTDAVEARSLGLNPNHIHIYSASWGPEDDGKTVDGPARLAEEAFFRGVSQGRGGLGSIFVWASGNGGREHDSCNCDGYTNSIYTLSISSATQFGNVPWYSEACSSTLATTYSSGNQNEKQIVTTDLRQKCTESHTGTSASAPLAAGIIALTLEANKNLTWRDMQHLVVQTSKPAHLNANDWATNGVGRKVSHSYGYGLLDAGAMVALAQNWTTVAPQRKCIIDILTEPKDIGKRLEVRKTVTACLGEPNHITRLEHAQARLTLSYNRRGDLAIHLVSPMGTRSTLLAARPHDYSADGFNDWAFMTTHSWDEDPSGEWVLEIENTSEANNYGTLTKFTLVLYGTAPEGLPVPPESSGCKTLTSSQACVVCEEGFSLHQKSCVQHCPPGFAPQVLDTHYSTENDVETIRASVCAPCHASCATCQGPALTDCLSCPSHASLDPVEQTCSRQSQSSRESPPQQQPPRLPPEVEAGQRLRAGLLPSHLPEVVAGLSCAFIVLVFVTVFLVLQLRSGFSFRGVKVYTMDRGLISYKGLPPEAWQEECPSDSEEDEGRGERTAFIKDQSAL
UniProt Q8NFA0: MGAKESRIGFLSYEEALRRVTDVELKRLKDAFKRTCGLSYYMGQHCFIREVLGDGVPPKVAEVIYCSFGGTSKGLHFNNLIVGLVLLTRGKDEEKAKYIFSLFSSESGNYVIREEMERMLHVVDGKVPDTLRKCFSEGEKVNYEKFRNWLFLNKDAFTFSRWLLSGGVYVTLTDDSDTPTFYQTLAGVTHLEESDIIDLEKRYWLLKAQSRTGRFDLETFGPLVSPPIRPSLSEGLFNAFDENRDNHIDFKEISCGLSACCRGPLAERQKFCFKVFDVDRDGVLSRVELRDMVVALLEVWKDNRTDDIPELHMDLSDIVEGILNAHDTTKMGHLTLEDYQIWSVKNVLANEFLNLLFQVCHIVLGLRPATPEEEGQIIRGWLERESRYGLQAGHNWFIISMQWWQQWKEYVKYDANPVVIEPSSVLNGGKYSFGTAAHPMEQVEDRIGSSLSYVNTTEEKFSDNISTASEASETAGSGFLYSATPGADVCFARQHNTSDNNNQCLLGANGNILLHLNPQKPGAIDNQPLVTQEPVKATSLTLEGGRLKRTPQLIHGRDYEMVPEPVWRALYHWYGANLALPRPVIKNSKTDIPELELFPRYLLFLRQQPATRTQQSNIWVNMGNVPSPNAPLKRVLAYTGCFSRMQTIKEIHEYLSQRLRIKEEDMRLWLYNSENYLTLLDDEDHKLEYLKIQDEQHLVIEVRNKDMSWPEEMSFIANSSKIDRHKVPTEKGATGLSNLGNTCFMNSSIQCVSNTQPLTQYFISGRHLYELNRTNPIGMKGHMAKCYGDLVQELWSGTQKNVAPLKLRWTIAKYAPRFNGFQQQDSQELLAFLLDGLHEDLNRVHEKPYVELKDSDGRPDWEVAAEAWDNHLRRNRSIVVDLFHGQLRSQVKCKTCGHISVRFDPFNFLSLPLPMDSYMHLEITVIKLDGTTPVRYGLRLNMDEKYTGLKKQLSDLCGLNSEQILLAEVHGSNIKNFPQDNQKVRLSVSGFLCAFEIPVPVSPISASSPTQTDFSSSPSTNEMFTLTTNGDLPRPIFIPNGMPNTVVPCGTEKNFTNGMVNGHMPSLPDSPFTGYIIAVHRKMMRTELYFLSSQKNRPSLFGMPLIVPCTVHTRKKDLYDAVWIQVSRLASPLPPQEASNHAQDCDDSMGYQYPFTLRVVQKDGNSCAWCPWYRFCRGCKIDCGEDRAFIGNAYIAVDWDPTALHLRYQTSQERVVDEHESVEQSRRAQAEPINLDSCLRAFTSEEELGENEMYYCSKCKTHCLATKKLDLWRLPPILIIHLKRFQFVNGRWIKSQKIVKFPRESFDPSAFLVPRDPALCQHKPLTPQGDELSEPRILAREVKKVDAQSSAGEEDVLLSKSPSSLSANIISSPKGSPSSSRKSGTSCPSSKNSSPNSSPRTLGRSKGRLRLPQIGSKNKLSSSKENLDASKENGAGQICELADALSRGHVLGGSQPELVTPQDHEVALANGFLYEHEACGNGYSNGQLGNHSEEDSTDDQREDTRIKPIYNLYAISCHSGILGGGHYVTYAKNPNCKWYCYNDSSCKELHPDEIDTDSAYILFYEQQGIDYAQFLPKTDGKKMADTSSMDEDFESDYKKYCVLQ

B1: MARCHF2-HA-VN (enzyme, UniProt Q9P0N8 1-246)
chain: MTTGDCCHLPGSLCDCSGSPAFSKVVEATGLGPPQYVAQVTSRDGRLLSTVIRALDTPSDGPFCRICHEGANGECLLSPCGCTGTLGAVHKSCLEKWLSSSNTSYCELCHTEFAVEKRPRPLTEWLKDPGPRTEKRTLCCDMVCFLFITPLAAISGWLCLRGAQDHLRLHSQLEAVGLIALTIALFTIYVLWTLVSFRYHCQLYSEWRKTNQKVRLKIREADSPEGPQHSPLAAGLLKKVAEETPV
B2: MARCHF8-HA-VN (enzyme, UniProt Q5T0T0 1-291)
chain: MSMPLHQISAIPSQDAISARVYRSKTKEKEREEQNEKTLGHFMSHSSNISKAGSPPSASAPAPVSSFSRTSITPSSQDICRICHCEGDDESPLITPCHCTGSLHFVHQACLQQWIKSSDTRCCELCKYEFIMETKLKPLRKWEKLQMTSSERRKIMCSVTFHVIAITCVVWSLYVLIDRTAEEIKQGQATGILEWPFWTKLVVVAIGFTGGLLFMYVQCKVYVQLWKRLKAYNRVIYVQNCPETSKKNIFEKSPLTEPNFENKHGYGICHSDTNSSCCTEPEDTGAEIIHV
B3: MARCHF9-HA-VN (enzyme, UniProt Q86YJ5-1 1-346)
chain: MLKSRLRMFLNELKLLVLTGGGRPRAEPQPRGGRGGGCGWAPFAGCSTRDGDGDEEEYYGSEPRARGLAGDKEPRAGPLPPPAPPLPPPGALDALSLSSSLDSGLRTPQCRICFQGPEQGELLSPCRCDGSVRCTHQPCLIRWISERGSWSCELCYFKYQVLAISTKNPLQWQAISLTVIEKVQIAAIVLGSLFLVASISWLIWSSLSPSAKWQRQDLLFQICYGMYGFMDVVCIGLIIHEGSSVYRIFKRWQAVNQQWKVLNYDKTKDIGGDAGGGTAGKSGPRNSRTGPTSGATSRPPAAQRMRTLLPQRCGYTILHLLGQLRPPDARSSSHSGREVVMRVTTV
B4: MARCHF2-3×HA (enzyme, UniProt Q9P0N8 1-246)
chain: B1 chain
B5: 3×HA-MARCHF8 (enzyme, UniProt Q5T0T0 1-291)
chain: B2 chain
B6: MARCHF9-3×HA (enzyme, UniProt Q86YJ5-1 1-346)
chain: B3 chain

What follows are molecules tested against furin-FLAG-VC (human) (UniProt P09958) (assay: split reporter; BiFC: MARCHF with a VN-tag and furin or 3K/A with a VC-tag co-expressed with TGOLN2-mCherry in HeLa cells; green signal by confocal microscopy).

Molecule | binding
B1 | binds
B2 | binds
B3 | binds

Each molecule was assayed against furin ΔCD (FLAG-tagged) (human) (UniProt P09958) (assay: co-IP; FLAG-tagged furin (WT or mutant) co-expressed with the tagged partner in HEK293T; RIPA lysate; IP with anti-FLAG M2 magnetic beads overnight at 4 °C; WB).

Molecule | binding
B4 | binds
B5 | binds
B6 | binds

These molecules were tested against furin ΔCT (FLAG-tagged) (human) (UniProt P09958) in the same assay as above.

Molecule | binding
B4 | no binding
B5 | no binding
B6 | no binding

These molecules were tested against USP32 with a 3×HA-tag (wild type) (human) (UniProt Q8NFA0) (assay: co-IP; HA-tagged MARCHF or USP32 (WT or mutant) co-expressed with furin (WT or mutant) in HEK293T; RIPA lysate; IP with anti-HA affinity gel overnight at 4 °C; WB).

Molecule | binding
furin ΔP (FLAG-tagged) (from UniProt P09958) (enzyme) | binds
furin ΔCD (FLAG-tagged) (from UniProt P09958) (enzyme) | binds
furin ΔCT (FLAG-tagged) (from UniProt P09958) (domain or fragment) | no binding
